No constants are given. Whether binding was seen depends on the method and setting. Binding seen in cells or lysates may run through a third protein.

Amino acid sequences for entries named in this document (tags omitted).
UniProt O00425: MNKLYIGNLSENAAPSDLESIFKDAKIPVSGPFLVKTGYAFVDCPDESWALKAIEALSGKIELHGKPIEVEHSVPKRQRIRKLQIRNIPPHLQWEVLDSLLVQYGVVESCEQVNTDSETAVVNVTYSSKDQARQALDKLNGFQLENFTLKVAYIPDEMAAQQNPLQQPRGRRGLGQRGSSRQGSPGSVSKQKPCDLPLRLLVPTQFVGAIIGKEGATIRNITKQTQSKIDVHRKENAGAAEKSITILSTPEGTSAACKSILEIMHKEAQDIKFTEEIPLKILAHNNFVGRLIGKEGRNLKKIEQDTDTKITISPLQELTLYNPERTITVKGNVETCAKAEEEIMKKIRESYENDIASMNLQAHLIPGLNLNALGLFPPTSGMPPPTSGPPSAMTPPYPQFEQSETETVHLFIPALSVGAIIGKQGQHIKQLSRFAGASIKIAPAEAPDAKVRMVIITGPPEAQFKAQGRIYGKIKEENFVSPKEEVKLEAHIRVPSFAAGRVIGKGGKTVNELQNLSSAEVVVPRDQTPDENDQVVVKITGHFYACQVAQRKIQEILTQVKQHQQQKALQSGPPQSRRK

This note sets out measurements from paper PMC9637093.

The assay deals with IGF2BP3 (not stated (human or mouse cDNA cloned)) (UniProt O00425). The assay can be described thus: co-IP; two-step IP: lysate of 293 T cells transfected with a FLAG-tagged RNA binding factor, biotin-conjugated RNA oligonucleotides added; FLAG-M2 beads 2 h at 4 °C, elution with 3xFLAG peptide, then streptavidin beads 1 h at 4 °C; washes in buffer D; western blotting. For orientation: Immunoblotting shows a protein as a band on a membrane.

B1: KHDRBS3 (protein, UniProt O75525 1-346)
chain: MEEKYLPELMAEKDSLDPSFTHALRLVNQEIEKFQKGEGKDEEKYIDVVINKNMKLGQKVLIPVKQFPKFNFVGKLLGPRGNSLKRLQEETLTKMSILGKGSMRDKAKEEELRKSGEAKYFHLNDDLHVLIEVFAPPAEAYARMGHALEEIKKFLIPDYNDEIRQAQLQELTYLNGGSENADVPVVRGKPTLRTRGVPAPAITRGRGGVTARPVGVVVPRGTPTPRGVLSTRGPVSRGRGLLTPRARGVPPTGYRPPPPPPTQETYGEYDYDDGYGTAYDEQSYDSYDNSYSTPAQSGADYYDYGHGLSEETYDSYGQEEWTNSRHKAPSARTAKGVYRDQPYGRY
B1: the binding entry is “no binding”.
